The test deals with T1, human BROX(1-401) (human, UniProt Q5VW32 1-401).
T1 construct: BROX, human, residues 1-401; lacks the 10 C-terminal residues 402-411 with the farnesylated Cys408; Residues of the vector may remain after TEV cleavage (surmise); also called wild type BROX; recombinant human BROX; not shown: His6, N-terminal, cleaved
T1 sequence (looked up): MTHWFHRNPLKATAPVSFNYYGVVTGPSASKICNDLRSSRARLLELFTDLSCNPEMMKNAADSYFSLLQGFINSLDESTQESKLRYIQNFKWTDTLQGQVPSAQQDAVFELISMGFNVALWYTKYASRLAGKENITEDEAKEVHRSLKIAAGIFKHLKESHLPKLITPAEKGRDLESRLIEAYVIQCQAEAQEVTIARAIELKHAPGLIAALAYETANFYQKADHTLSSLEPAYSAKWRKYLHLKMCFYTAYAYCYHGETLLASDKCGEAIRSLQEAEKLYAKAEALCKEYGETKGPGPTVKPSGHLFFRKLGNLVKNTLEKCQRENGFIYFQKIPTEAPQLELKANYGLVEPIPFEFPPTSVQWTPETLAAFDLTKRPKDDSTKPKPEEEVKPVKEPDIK
The test can be described thus: SEC; gel filtration of purified BROX(1-401), Superdex 75, 10 mM Tris pH 8.0, 100 mM NaCl, 1 mM DTT; 47 kDa protein eluted as a single species of apparent 57 kDa; both purified. On the technique in general: Size exclusion chromatography separates by hydrodynamic size, large species first.

This note sets out measurements from article PMC3230590, “Structure of the Bro1 Domain Protein BROX and Functional Analyses of the ALIX Bro1 Domain in HIV-1 Budding” (PLoS ONE, 2011).

Results are given in words; binding and its absence hold for the method and conditions named.

B1: human BROX(1-401) (protein, UniProt Q5VW32 1-401)
chain: MTHWFHRNPLKATAPVSFNYYGVVTGPSASKICNDLRSSRARLLELFTDLSCNPEMMKNAADSYFSLLQGFINSLDESTQESKLRYIQNFKWTDTLQGQVPSAQQDAVFELISMGFNVALWYTKYASRLAGKENITEDEAKEVHRSLKIAAGIFKHLKESHLPKLITPAEKGRDLESRLIEAYVIQCQAEAQEVTIARAIELKHAPGLIAALAYETANFYQKADHTLSSLEPAYSAKWRKYLHLKMCFYTAYAYCYHGETLLASDKCGEAIRSLQEAEKLYAKAEALCKEYGETKGPGPTVKPSGHLFFRKLGNLVKNTLEKCQRENGFIYFQKIPTEAPQLELKANYGLVEPIPFEFPPTSVQWTPETLAAFDLTKRPKDDSTKPKPEEEVKPVKEPDIK
For the molecule B1, the binding result was “no binding”.
